PubChem BioAssay AID1508588, Peter MacCallum Cancer Centre – 2020

Assay: 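Genome-wide search for knock-downs that heighten vemurafenib action in melanoma cells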 (primary screen)
System: human WM266.4 melanoma cells (BRAF V600 mutant)
Reagent: siRNA pool against human genes, 40 nM
Time to read-out: 96 h from transfection to read-out
Treatment: vemurafenib 300 nM (about IC25), added 48 h after transfection, for 48 h; comparison arm got DMSO vehicle only
Detection: 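Ratios to non-targeting siRNA for cell gain, counted as DAPI nuclei after minus before drug and averaged over two replicates, and for absorbance-read medium lactate per cell; both binned into fold-change classes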
Direction: cell gain with vemurafenib: higher = more cell gain than with non-targeting siRNA; lactate per cell with vemurafenib: higher = more lactate made per cell
Call rule: 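Enhancement is called by pairing each knock-down's vehicle-arm and drug-arm fold-change classes for viability or glycolysis; which class combinations qualify is not given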
Calls: active = enhances vemurafenib effect; inactive = no enhancement seen
In all, the deposit lists about 18,000 reagents; this is an unselected part. 790 of them (4.4%) count as active. 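Calls rest on a combination of fold-change classes in drug and vehicle arms, not all shown here.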

| cell gain with vemurafenib | lactate per cell with vemurafenib | Outcome | Gene |
| --- | --- | --- | --- |
| 0.7 | 1.12 | inactive | SDHC |
| 0.37 | 0.99 | inactive | VCY |
| 0.64 | 0.96 | inactive | TRIM10 |
| 0.2 | 1.96 | inactive | PUF60 |
| 0.69 | 1.16 | inactive | EQTN |
| 0.92 | 1.11 | inactive | KIR2DL4 |
| 0.43 | 0.66 | inactive | RNF207 |
| -0.13 | 1.45 | inactive | RRAD |
| 0.46 | 0.85 | inactive | MRPL54 |
| 0.63 | 1.06 | inactive | IL10 |
| -0.02 | 1.02 | inactive | MKI67 |
| 0.42 | 2.08 | inactive | SPRTN |
| 0.86 | 0.92 | inactive | PAFAH1B3 |
| 0.92 | 0.99 | inactive | CYP46A1 |
| 0.25 | 1.08 | inactive | MTM1 |
| 0.54 | 0.87 | inactive | PARD6G |
| 0.27 | 1.31 | inactive | DYNC2LI1 |
| 0.28 | 0.98 | inactive | CCNB2 |
| 0.79 | 1.52 | inactive | SPACA1 |
| 0.45 | 0.78 | inactive | TGFB2 |
| 0.56 | 1.06 | inactive | ZSCAN20 |
| 0.33 | 1.02 | inactive | OR10AD1 |
| 0.23 | 1.04 | inactive | CHPT1 |
| 0.5 | 0.62 | inactive | ACYP1 |
| 0.53 | 1.33 | inactive | MRM2 |
| 0.26 | 1.05 | inactive | KRTAP4-1 |
| 0.82 | 0.42 | active | USP37 |
| 0.31 | 0.76 | inactive | PARD3 |
| 0.85 | 0.7 | inactive | LAMTOR1 |
| 0.6 | 1.01 | inactive | RHBDL2 |
| 0.94 | 1 | inactive | KDM4C |
| 0.29 | 0.38 | inactive | PPP1R12A |
| 0.77 | 0.73 | inactive | COMMD6 |
| 0.41 | 1.23 | inactive | ITPA |
| 0.46 | 1.32 | inactive | SH3GL3 |
| 0.3 | 0.92 | inactive | PGM2L1 |
| 1.38 | 0.74 | inactive | FUBP3 |
| 0.46 | 0.46 | active | PHC1 |
| 0.68 | 0.45 | inactive | NOS3 |
| 0.25 | 1.17 | inactive | GSC |
| 0.35 | 1.1 | inactive | MYOZ1 |
| 0.25 | 1.37 | inactive | NOP9 |
| 0.36 | 1.66 | inactive | MT1G |
| 0.26 | 0.89 | inactive | MAOA |
| 0.31 | 0.6 | inactive | RGN |
| 0.59 | 0.52 | inactive | TAGLN2 |

6 of these entries, reformatted:
cell gain with vemurafenib | lactate per cell with vemurafenib | Outcome | Gene
0.37 | 0.99 | inactive | VCY
0.64 | 0.96 | inactive | TRIM10
0.2 | 1.96 | inactive | PUF60
0.69 | 1.16 | inactive | EQTN
0.92 | 1.11 | inactive | KIR2DL4
0.43 | 0.66 | inactive | RNF207

Next results:
| cell gain with vemurafenib | lactate per cell with vemurafenib | Outcome | Gene |
| --- | --- | --- | --- |
| 0.4 | 0.81 | inactive | DCAF7 |
| 1.25 | 0.48 | inactive | GSK3B |
| 0.82 | 0.72 | inactive | FOXF1 |
| 0.13 | 1.55 | inactive | ELMO1 |
| 0.73 | 0.97 | inactive | ATP5IF1 |
| 0.96 | 0.89 | inactive | EID2 |
| 0.79 | 0.78 | inactive | ADGRL1 |
| 0.65 | 0.72 | inactive | PAXBP1 |
| 1.16 | 0.7 | inactive | OR7E24 |
| 0.58 | 0.76 | inactive | FOXH1 |
| 0.63 | 0.99 | inactive | NXPE2 |
| 0.47 | 1.6 | inactive | BCL11A |
| 1.01 | 0.82 | inactive | CLDN20 |
| 0.95 | 0.72 | inactive | PDLIM4 |
| 0.66 | 0.78 | inactive | OTOGL |
| -0.03 | 1.23 | inactive | TREH |
| 0.73 | 0.57 | inactive | JAK1 |
| 0.91 | 0.7 | inactive | HLA-F |
| 0.71 | 0.88 | inactive | PIGF |
| 1 | 0.62 | inactive | JAKMIP1 |
| 0.39 | 1.2 | inactive | PTPN6 |
| 0.45 | 0.55 | active | KIF1B |
| 0.85 | 1.1 | inactive | STK26 |
| 0.5 | 1.27 | inactive | MFAP5 |
| 0.38 | 1.62 | inactive | RAB11FIP4 |
| -0.12 | 2.38 | inactive | RPLP0 |
| 0.41 | 1.14 | inactive | POFUT1 |
| 0.59 | 0.84 | inactive | CELSR2 |
| 1.09 | 0.9 | inactive | ZCCHC13 |
| 0.72 | 1.06 | inactive | F2RL1 |
| 0.78 | 1 | inactive | AHSG |
| 0.58 | 1.36 | inactive | DEUP1 |
| 0.5 | 0.63 | inactive | KLK8 |
| 0.82 | 0.98 | inactive | MDP1 |
| 0.7 | 0.44 | active | ZFHX2 |
| 0.52 | 1.29 | inactive | HEXIM2 |
| 0.63 | 1.1 | inactive | MAGI1 |
| 0.76 | 0.94 | inactive | GRN |
| 0.89 | 1.32 | inactive | CCT6B |
| 0.41 | 1.11 | inactive | TMEM62 |
| 0.76 | 0.57 | inactive | SIRT3 |
| 0.44 | 2.64 | inactive | IL17B |
| 0.79 | 0.94 | inactive | PIP4K2C |
| 0.66 | 1.02 | inactive | MMP27 |
| 0.49 | 1.17 | inactive | RUBCNL |
| 0.32 | 0.44 | inactive | SIX4 |
| 0.5 | 0.52 | inactive | UBA1 |
| 0.71 | 0.54 | inactive | ZNF418 |
| 0.43 | 1.7 | inactive | ZNF518A |
| 0.62 | 0.58 | inactive | CDCA2 |
| 0.24 | 1.36 | inactive | NBR1 |
| 0.94 | 0.76 | inactive | SLC12A6 |
| 0.62 | 0.26 | inactive | ZNF571 |
| 0.84 | 0.62 | inactive | GHRL |
| 0.34 | 0.58 | inactive | MFAP3L |
| 0.45 | 0.81 | inactive | YOD1 |
| 0.87 | 0.8 | inactive | PARG |
| 1.01 | 0.44 | inactive | MAN1A2 |
| 0.66 | 1.02 | inactive | OR6B1 |
| 0.82 | 0.78 | inactive | HPCAL1 |
| 0.91 | 0.7 | inactive | ADAD1 |
